ClpP1P2: 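ClpP1P2, Mycobacterium tuberculosis (UniProt P9WPC5 and UniProt P9WPC3). Protease assay of ClpP1P2, read by the AMC dye that it sets free. Tested at 50 µM. Direction is inferred from only a few compounds that gave an IC50; most scored high, so higher reads as stronger inhibition. Most other retested compounds had strongly negative values. About 69,000 compounds were tested under these conditions; 0.015% (about 10) showed 50% or more at least once.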
Pks13 thioesterase: 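Enzyme assay of the thioesterase domain of polyketide synthase 13; the read-out is not stated. Target: Polyketide synthase Pks13, Mycobacterium tuberculosis (UniProt I6X8D2). Tested at 30 µM. Higher reads as stronger inhibition (inferred from which compounds were picked for retests). Size under these conditions: about 67,000 compounds, about 300 of them at 50% or above in at least one test.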

Sequences of proteins named here, by UniProt entry; tags and fusion partners are left off.
UniProt P9WPC5, whole entry: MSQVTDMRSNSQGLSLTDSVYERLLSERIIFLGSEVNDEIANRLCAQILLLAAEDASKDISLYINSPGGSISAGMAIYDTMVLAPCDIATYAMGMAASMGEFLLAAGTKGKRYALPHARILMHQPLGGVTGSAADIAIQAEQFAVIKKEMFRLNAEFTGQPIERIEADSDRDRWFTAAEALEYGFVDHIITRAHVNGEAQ
UniProt P9WPC3, whole entry partner: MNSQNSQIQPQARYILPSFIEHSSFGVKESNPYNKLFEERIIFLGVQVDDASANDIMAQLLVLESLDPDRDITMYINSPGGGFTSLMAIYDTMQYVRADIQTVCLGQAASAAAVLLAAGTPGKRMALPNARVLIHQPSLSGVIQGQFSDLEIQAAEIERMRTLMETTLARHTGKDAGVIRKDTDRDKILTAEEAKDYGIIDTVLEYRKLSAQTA
UniProt I6X8D2, whole entry: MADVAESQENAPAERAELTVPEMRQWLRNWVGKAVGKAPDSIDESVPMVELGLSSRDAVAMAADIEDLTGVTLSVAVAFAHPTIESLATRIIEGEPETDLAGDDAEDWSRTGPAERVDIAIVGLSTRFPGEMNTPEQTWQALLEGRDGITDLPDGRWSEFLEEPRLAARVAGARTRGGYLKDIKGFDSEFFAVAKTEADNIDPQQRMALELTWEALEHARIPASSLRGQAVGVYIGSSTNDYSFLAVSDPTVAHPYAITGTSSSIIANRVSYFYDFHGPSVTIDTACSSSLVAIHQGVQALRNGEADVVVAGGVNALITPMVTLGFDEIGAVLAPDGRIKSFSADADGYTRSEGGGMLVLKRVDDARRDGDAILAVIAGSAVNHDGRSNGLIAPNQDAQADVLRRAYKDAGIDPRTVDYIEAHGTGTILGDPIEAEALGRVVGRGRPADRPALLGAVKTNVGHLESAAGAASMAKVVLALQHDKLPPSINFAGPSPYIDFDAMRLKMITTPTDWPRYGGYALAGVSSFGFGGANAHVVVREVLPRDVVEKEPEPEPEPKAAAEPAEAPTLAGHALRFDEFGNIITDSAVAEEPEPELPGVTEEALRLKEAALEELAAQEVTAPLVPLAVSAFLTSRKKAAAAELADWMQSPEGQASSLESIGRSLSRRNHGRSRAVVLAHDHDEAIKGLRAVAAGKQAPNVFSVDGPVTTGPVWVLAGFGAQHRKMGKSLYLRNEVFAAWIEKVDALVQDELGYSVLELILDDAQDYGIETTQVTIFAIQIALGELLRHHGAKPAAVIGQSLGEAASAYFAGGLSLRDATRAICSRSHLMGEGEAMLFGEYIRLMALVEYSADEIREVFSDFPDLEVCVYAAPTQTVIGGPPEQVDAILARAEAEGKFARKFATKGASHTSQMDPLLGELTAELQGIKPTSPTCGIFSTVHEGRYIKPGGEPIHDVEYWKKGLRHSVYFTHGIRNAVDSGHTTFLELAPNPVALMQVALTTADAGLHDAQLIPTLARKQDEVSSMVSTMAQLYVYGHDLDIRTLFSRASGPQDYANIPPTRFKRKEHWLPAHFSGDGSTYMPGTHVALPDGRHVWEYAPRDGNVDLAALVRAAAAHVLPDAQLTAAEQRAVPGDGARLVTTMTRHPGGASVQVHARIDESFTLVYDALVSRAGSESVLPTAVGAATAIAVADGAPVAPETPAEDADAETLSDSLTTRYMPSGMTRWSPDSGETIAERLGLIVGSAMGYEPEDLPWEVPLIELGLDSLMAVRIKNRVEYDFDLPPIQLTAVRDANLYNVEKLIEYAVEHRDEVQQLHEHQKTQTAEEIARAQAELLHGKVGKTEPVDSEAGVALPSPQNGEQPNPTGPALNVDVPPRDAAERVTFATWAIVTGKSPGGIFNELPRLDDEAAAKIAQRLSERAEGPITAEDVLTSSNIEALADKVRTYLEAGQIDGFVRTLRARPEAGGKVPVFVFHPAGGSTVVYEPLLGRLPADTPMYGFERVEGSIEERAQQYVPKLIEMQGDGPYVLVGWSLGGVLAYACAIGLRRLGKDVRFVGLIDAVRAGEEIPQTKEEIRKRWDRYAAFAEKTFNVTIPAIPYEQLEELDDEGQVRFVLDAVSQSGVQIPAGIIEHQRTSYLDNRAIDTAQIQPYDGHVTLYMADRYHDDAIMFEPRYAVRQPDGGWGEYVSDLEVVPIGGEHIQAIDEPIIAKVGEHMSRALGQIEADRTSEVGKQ

Results are given as percent effect.
The record does not define 0% and 100%; most values in the screen are far below 50% and negative numbers occur (in some assays of this library far below -100).
This is an unselected part of the compounds tested.

* O=C(c1cccc2c1OCCO2)N1CCCC(n2ccnc2)C1 (stereo unspecified) | ClpP1P2: -0.7524%; Pks13 thioesterase: -17.37%
* N[C@H]1CN(C(=O)c2ccc3[nH]c(=O)c(=O)[nH]c3c2)C[C@@H]1c1ccccc1 | ClpP1P2: -4.448%; Pks13 thioesterase: -8.026%
* O=C1CCC2(CCCN(C(=O)Cc3ccccc3)C2)N1 (stereo unspecified) | ClpP1P2: -1.847%; Pks13 thioesterase: -48.14%
* O=S(=O)(c1ccccc1)N1CC[C@]2(C[C@@H](OCC3CC3)CO2)C1 | ClpP1P2: -2.984%; Pks13 thioesterase: -0.9742%
* CC(C)NC(=O)CC1COC2(CCN(Cc3ccsc3)CC2)C1 (stereo unspecified) | ClpP1P2: -9.456%; Pks13 thioesterase: -9.29%
* c1cc(CN2CCOC[C@H]2c2nc(-c3ccncc3)c[nH]2)ccn1 | ClpP1P2: -5.008%; Pks13 thioesterase: -27.12%
* CN(CC(N)=O)C(=O)c1cc(Cl)c(Cl)n1C | ClpP1P2: -0.8556%; Pks13 thioesterase: -6.475%
* Cc1n[nH]c(C)c1-c1nccnc1CC1CCN(C(C)C)CC1 | ClpP1P2: -0.01729%; Pks13 thioesterase: -25.83%
* Cc1csc(N2CCN(CC(=O)N3CCNC3=O)CC2C)n1 (stereo unspecified) | ClpP1P2: -15.89%; Pks13 thioesterase: -22.76%
* CC1c2ncc(Cn3cncn3)n2CCN1C(=O)N(C)C (stereo unspecified) | ClpP1P2: -11.47%; Pks13 thioesterase: -16.31%
* COc1nc2c(cc1C(=O)NCCc1nc(C)c(C(=O)O)s1)CCC2 | ClpP1P2: 5.135%; Pks13 thioesterase: 34.24%
* c1cc(CNCc2ccnc(N3CCOCC3)c2)c2c(c1)OCCCO2 | ClpP1P2: 0.9336%; Pks13 thioesterase: -32.71%
* COC(=O)CCNC(=O)c1nnn(-c2ccccc2)c1C(F)(F)F | ClpP1P2: 2.854%; Pks13 thioesterase: -8.424%
* COCc1cc(C[C@@H]2CC[C@H](O)[C@@H](CN(CC(C)C)CC(C)C)O2)no1 | ClpP1P2: -4.524%; Pks13 thioesterase: 9.515%
* CCc1nc(C)c(C(=O)NCCN2CCCC2)s1 | ClpP1P2: 0.8258%; Pks13 thioesterase: -21.25%
* CC(C)NC(=O)[C@H]1C[C@@H]2[C@@H](C1)OCCN2Cc1ccccn1 | ClpP1P2: -1.883%; Pks13 thioesterase: -26.98%
* NCc1cnn(-c2ccccc2C(=O)N2CCCC(C(N)=O)C2)c1 (stereo unspecified) | ClpP1P2: -0.4576%; Pks13 thioesterase: -4.26%
* CCn1c(C)cc(C(=O)Nc2ccccc2CN(C)C(C)=O)c1C | ClpP1P2: -10.38%; Pks13 thioesterase: -14.92%
* CCc1nsc(NC2CCCn3nc(CC)nc32)n1 (stereo unspecified) | ClpP1P2: -8.579%; Pks13 thioesterase: -23.55%
* CCn1nc2c(cc1=O)CN(c1ncnc3sccc13)CC2 | ClpP1P2: 2.703%; Pks13 thioesterase: -13.03%
* O=C(CCNc1ncccn1)N1CCCC(n2cccn2)C1 (stereo unspecified) | ClpP1P2: 1.45%; Pks13 thioesterase: -3.843%
* CCOc1ncccc1C(=O)N(C)Cc1ncc(C)c(OC)c1C | ClpP1P2: 3.461%; Pks13 thioesterase: -12.15%
* CCc1noc(C(C)SCCS(C)(=O)=O)n1 (stereo unspecified) | ClpP1P2: -6.326%; Pks13 thioesterase: -28.06%
* CC(=O)NCC1CCN(C(=O)NCCOc2ccc3c(c2)CCC3)CC1 | ClpP1P2: -6.515%; Pks13 thioesterase: -26.34%
* CCc1nccn1C1CCCN(C(=O)c2ccn(-c3ccccc3)n2)C1 (stereo unspecified) | ClpP1P2: -7.656%; Pks13 thioesterase: -4.687%
* COCCN1CC[C@]2(CN(C(=O)c3cccs3)C[C@H]2C)C1=O | ClpP1P2: -0.5093%; Pks13 thioesterase: -11.74%
* CC(C)C(=O)NC1CCN(Cc2cccc3c2OCCO3)CC1 | ClpP1P2: -5.535%; Pks13 thioesterase: -5.537%
* Cc1cnc(N)c(C(=O)C2CCN(C(=O)C3CCC3)CC2)c1 | ClpP1P2: -37.24%; Pks13 thioesterase: -18.67%
* Cc1ccncc1C(=O)N1C[C@H]2CN(CC3CCC3)C[C@@]2(C(=O)O)C1 | ClpP1P2: -6.262%; Pks13 thioesterase: 7.655%
* COc1cccc(N2Cc3nc(=O)n(Cc4cccc(F)c4)n3C2=O)c1 | ClpP1P2: -7.175%; Pks13 thioesterase: 1.173%
* CCCOc1ccc(C(=O)N2CC[C@H]3CC[C@@H](C2)N3)cc1Cl | ClpP1P2: 5.462%; Pks13 thioesterase: -33.44%
* O=C(c1ccoc1)N1CC[C@H]2C[C@@H](c3ccncn3)O[C@@H]2C1 | ClpP1P2: 1.01%; Pks13 thioesterase: -16.83%
* CC(C)C(=O)Nc1cc(C(=O)NC2CC(C)(C)NC(C)(C)C2)nn1C | ClpP1P2: -4.921%; Pks13 thioesterase: 9.981%
* COc1ncnc(N(C)C)c1NC(=O)Cc1c[nH]c2ccc(F)cc12 | ClpP1P2: 2.252%; Pks13 thioesterase: -15.88%
* O=C1NCCN1C1CCN(c2ccnc(-c3ccccc3)n2)CC1 | ClpP1P2: 8.465%; Pks13 thioesterase: 4.828%
* Cc1cnn(CCC(=O)N(CC2CN(C)CCO2)c2nccs2)c1 (stereo unspecified) | ClpP1P2: -10.22%; Pks13 thioesterase: -4.411%
* O=C(CN1CCCC(c2ccc(C(=O)O)cc2)C1)NC1CC1 (stereo unspecified) | ClpP1P2: -7.897%; Pks13 thioesterase: -15.07%
* CNC(=O)c1cc2c(nc1N(C)C)CCN(S(=O)(=O)CC(C)C)CC2 | ClpP1P2: -18.74%; Pks13 thioesterase: -0.06274%
* COc1ccc(OCc2nc(C(=O)N3CC[C@H](O)[C@@H](O)C3)co2)cc1 | ClpP1P2: -5.447%; Pks13 thioesterase: -13.94%
* CC(O)CN1CCN(C(=O)c2ccn(-c3ccc(F)cc3)n2)CC1 (stereo unspecified) | ClpP1P2: -17.25%; Pks13 thioesterase: -5.122%
* CCC[C@@H]1CN(Cc2nnc(-c3cccnc3)o2)C[C@H]1NC(C)=O | ClpP1P2: -1.239%; Pks13 thioesterase: -3.424%
* Cc1ccc(O)c(C(=O)N2CCC(CN3CCCCCC3)CC2)c1 | ClpP1P2: 7.94%; Pks13 thioesterase: -4.994%
* CCCC(C)NC1CCN(c2ccc(-n3ccnc3C)cc2)CC1 (stereo unspecified) | ClpP1P2: -9.594%; Pks13 thioesterase: -14.54%
* CN(CC1=CCCN(Cc2cccc(C#N)c2)C1)C(=O)c1ccco1 | ClpP1P2: -4.96%; Pks13 thioesterase: -0.1435%
* CC(NC(=O)c1ccnn1C)c1ccc(OCC2CC2)c(F)c1 (stereo unspecified) | ClpP1P2: -9.226%; Pks13 thioesterase: 10.8%

Some entries from above, unchanged:

| structure | ClpP1P2 | Pks13 thioesterase |
|---|---|---|
| `CCn1c(C)cc(C(=O)Nc2ccccc2CN(C)C(C)=O)c1C` | -10.38% | -14.92% |
| `CCc1nc(C)c(C(=O)NCCN2CCCC2)s1` | 0.8258% | -21.25% |
| `CN(CC(N)=O)C(=O)c1cc(Cl)c(Cl)n1C` | -0.8556% | -6.475% |
| `COc1ncnc(N(C)C)c1NC(=O)Cc1c[nH]c2ccc(F)cc12` | 2.252% | -15.88% |

Data taken from ChEMBL document CHEMBL3988442, “University of Dundee, Small-Polar-MMV Screening Library” (2021).